Results taken from paper doi:10.1101/2022.08.31.505651.
Read-outs that look alike come from different tables or passages of the source. No constants are given. Whether binding was seen depends on the method and setting. In cells and extracts the contact can be indirect. Some entries that bind do so weakly or less than the wild type.

What was measured:
Assay in all cases: co-IP
[1] = biological target: T1, C21ORF2 L73P (R73P elsewhere in the paper) re-expressed in C21ORF2-KO ARPE-19 cells (human) (UniProt O43822)
T1 sequence: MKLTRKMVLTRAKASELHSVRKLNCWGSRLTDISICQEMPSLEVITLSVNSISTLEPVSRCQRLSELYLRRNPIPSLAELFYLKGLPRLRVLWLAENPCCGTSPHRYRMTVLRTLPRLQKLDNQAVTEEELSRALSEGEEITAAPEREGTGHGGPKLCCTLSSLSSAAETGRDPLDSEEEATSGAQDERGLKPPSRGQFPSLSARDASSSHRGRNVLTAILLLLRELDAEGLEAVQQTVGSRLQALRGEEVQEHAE

[2] = biological target: T2, C21ORF2 (endogenous) (human (endogenous in ARPE-19, HeLa, HEK293, U2OS)) (UniProt O43822)
T2 sequence: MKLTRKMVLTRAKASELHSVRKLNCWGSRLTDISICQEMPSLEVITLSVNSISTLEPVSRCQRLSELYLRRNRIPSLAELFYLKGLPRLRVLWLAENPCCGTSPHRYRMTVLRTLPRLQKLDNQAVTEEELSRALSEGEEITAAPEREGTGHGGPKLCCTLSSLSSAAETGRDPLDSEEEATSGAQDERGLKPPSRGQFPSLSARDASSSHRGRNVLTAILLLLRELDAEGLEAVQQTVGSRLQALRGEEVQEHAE

[3] = biological target: T3, C21ORF2 L224P re-expressed in C21ORF2-KO ARPE-19 cells (human) (UniProt O43822)
T3 sequence: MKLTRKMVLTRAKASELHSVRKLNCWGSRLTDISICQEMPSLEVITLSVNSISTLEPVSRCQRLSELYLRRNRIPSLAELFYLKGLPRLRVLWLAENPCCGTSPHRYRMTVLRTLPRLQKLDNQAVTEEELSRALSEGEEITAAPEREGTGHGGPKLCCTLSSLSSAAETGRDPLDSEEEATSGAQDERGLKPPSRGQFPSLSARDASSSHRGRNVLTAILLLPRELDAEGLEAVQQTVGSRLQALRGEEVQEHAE

[4] = biological target: T2, C21ORF2 (endogenous) (human (endogenous in ARPE-19, HeLa, HEK293, U2OS)); remark: listed apart in the source
[5] = biological target: T2, C21ORF2 (endogenous) (human (endogenous in ARPE-19, HeLa, HEK293, U2OS)); remark: listed apart in the source

binding [1]: binds weakly | binding [2]: binds | binding [3]: binds weakly | binding [4]: binds | binding [5]: binds
B1: NEK1 (endogenous) (enzyme, UniProt Q96PY6-3 1-1286)
chain: MEKYVRLQKIGEGSFGKAILVKSTEDGRQYVIKEINISRMSSKEREESRREVAVLANMKHPNIVQYRESFEENGSLYIVMDYCEGGDLFKRINAQKGVLFQEDQILDWFVQICLALKHVHDRKILHRDIKSQNIFLTKDGTVQLGDFGIARVLNSTVELARTCIGTPYYLSPEICENKPYNNKSDIWALGCVLYELCTLKHAFEAGSMKNLVLKIISGSFPPVSLHYSYDLRSLVSQLFKRNPRDRPSVNSILEKGFIAKRIEKFLSPQLIAEEFCLKTFSKFGSQPIPAKRPASGQNSISVMPAQKITKPAAKYGIPLAYKKYGDKKLHEKKPLQKHKQAHQTPEKRVNTGEERRKISEEAARKRRLEFIEKEKKQKDQIISLMKAEQMKRQEKERLERINRAREQGWRNVLSAGGSGEVKAPFLGSGGTIAPSSFSSRGQYEHYHAIFDQMQQQRAEDNEAKWKREIYGRGLPERGILPGVRPGFPYGAAGHHHFPDADDIRKTLKRLKAVSKQANANRQKGQLAVERAKQVEEFLQRKREAMQNKARAEGHMGILQNLAAMYGGRPSSSRGGKPRNKEEEVYLARLRQIRLQNFNERQQIKAKLRGEKKEANHSEGQEGSEEADMRRKKIESLKAHANARAAVLKEQLERKRKEAYEREKKVWEEHLVAKGVKSSDVSPPLGQHETGGSPSKQQMRSVISVTSALKEVGVDSSLTDTRETSEEMQKTNNAISSKREILRRLNENLKAQEDEKGKQNLSDTFEINVHEDAKEHEKEKSVSSDRKKWEAGGQLVIPLDELTLDTSFSTTERHTVGEVIKLGPNGSPRRAWGKSPTDSVLKILGEAELQLQTELLENTTIRSEISPEGEKYKPLITGEKKVQCISHEINPSAIVDSPVETKSPEFSEASPQMSLKLEGNLEEPDDLETEILQEPSGTNKDESLPCTITDVWISEEKETKETQSADRITIQENEVSEDGVSSTVDQLSDIHIEPGTNDSQHSKCDVDKSVQPEPFFHKVVHSEHLNLVPQVQSVQCSPEESFAFRSHSHLPPKNKNKNSLLIGLSTGLFDANNPKMLRTCSLPDLSKLFRTLMDVPTVGDVRQDNLEIDEIEDENIKEGPSDSEDIVFEETDTDLQELQASMEQLLREQPGEEYSEEEESVLKNSDVEPTANGTDVADEDDNPSSESALNEEWHSDNSDGEIASECECDSVFNHLEELRLHLEQEMGFEKFFEVYEKIKAIHEDEDENIEICSKIVQNILGNEHQHLYAKILHLVMADGAYQEDNDE
